The target in this experiment is Dsk2-TAP (S. cerevisiae) (UniProt P48510). Kind of experiment: co-IP; extracts of yeast cells expressing endogenous Dsk2-TAP and galactose-inducible GST-His6-Kre22; immunoprecipitated with either IgG or GST beads, SDS-PAGE, immunoblot; done as in ref. 20. In general terms: In western blotting, separated proteins are transferred to a membrane and probed.

Chains of the proteins cited; added tags and fusions are not shown.
UniProt P48510: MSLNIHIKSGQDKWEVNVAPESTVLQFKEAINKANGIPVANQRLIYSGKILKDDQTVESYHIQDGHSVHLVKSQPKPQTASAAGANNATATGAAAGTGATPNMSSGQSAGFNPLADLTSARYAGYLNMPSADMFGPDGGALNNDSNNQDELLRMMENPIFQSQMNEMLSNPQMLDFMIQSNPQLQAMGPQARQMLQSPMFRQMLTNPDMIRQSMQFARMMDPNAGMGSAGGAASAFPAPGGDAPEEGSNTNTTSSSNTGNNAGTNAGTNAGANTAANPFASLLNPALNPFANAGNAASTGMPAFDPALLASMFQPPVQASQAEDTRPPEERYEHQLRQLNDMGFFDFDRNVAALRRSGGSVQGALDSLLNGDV

No constants are given. Whether binding was seen depends on the method and setting. Binding seen in cells or lysates may run through a third protein. Some entries that bind do so weakly or less than the wild type. Where a sequence is shown, tags or fusion partners need not be part of it.

B1: GST-His6-tagged Kre22 (protein, UniProt P87269 1-146)
chain: MTILHQSEDQIEVASEVAAASEAASEVASEAVSPEAASVAPEVDLVVQEVVTVAIPEVATVATPEADMVAPEVVTIVLEVVTIVQEVVIPEVAMVVQEMITVLQEVATVVQEVVMMVQEAIMVLQEMHTEPEMLHVKDHQPGKPFI
As for B1, the binding result is reported as “binds”.
